Laboratory results: PubChem BioAssay AID504764 (Drosophila RNAi Screening Center, 2011)
Screen: 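Knock-downs that raise or lower a Notch target reporter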 (primary screen). Cell system: Drosophila Kc167 cells. Knock-down reagent: long dsRNA against Drosophila genes. Timing: about 5 days (4 days dsRNA, then 24 h after transfection). Challenge: transfection of constitutively active membrane-tethered Notch lacking the extracellular domain, read 24 h later. Measured: 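Firefly luciferase from an E(spl)m3 reporter with active Notch, plus control-promoter and uninduced reporter wells for normalisation; unnormalised counts, duplicate wells a and b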. Scale: induced reporter light, run 1, well a and induced reporter light, run 1, well b: higher = more light from the Notch target reporter with active Notch; control promoter light, run 1, well a and control promoter light, run 1, well b: higher = more light from the viral control promoter (cell number, transfection, viability); uninduced reporter light, run 1, well a: higher = more light from the Notch target reporter without active Notch. Rule for the call: 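Hit if the duplicate-averaged log2 ratio of induced to control-promoter light gives a plate-wise z beyond ±2, or induced to uninduced beyond ±1.8; weak-control or discordant-duplicate wells dropped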. Meaning of the calls: active = modifier hit (raised or lowered Notch signal); inactive = not a hit.
The screen tested about 22,000 reagents; below is an unselected part of those with a known target gene and a result. In the full data, 403 (1.9%) got an active call. 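Unnormalised raw counts per well; ratio z-scores behind the hit calls and whether each hit raises or lowers signal are not deposited.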 A plus sign joins genes that one reagent is predicted to hit. The record does not give: the amount of reagent.

| gene | DRSC id | induced reporter light, run 1, well a | induced reporter light, run 1, well b | control promoter light, run 1, well a | control promoter light, run 1, well b | uninduced reporter light, run 1, well a | outcome |
| --- | --- | --- | --- | --- | --- | --- | --- |
| Hex-t2 | DRSC22517 | – | – | – | – | – | inactive |
| CG1951 | DRSC15403 | 1.96e5 | 2.12e5 | 3.11e5 | 3.09e5 | 18705 | inactive |
| Cpr49Ad | DRSC07284 | 91980 | 85020 | 1.25e5 | 1.24e5 | 10000 | inactive |
| CG32240 | DRSC08093 | 1.94e5 | 1.84e5 | 1.75e5 | 1.88e5 | 12478 | inactive |
| l(3)80Fj | DRSC20986 | 1.89e5 | 1.62e5 | 3.56e5 | 2.61e5 | 17180 | inactive |
| l(3)80Fj | DRSC20989 | 75925 | 1.08e5 | 89655 | 1.02e5 | 10065 | inactive |
| Bruce | DRSC16015 | 40180 | 56620 | 51485 | 45775 | 6425 | inactive |
| CG34163 | DRSC01219 | 1.44e5 | 1.35e5 | 1.55e5 | 1.46e5 | 9925 | inactive |
| spdi | DRSC18487 | 2.07e5 | 2.39e5 | 3.00e5 | 2.84e5 | 15835 | inactive |
| spdi | DRSC18488 | 1.96e5 | 1.60e5 | 3.06e5 | 3.28e5 | 12790 | inactive |
| Upf2 | DRSC18218 | 1.42e5 | 1.39e5 | 3.42e5 | 3.66e5 | 14210 | active |
| Nulp1 | DRSC09677 | 1.38e5 | 1.21e5 | 93270 | 48660 | 11855 | inactive |
| cyr | DRSC18017 | 1.35e5 | 1.35e5 | 1.83e5 | 1.96e5 | 8575 | inactive |
| cyr | DRSC18018 | 1.75e5 | 1.64e5 | 3.15e5 | 2.50e5 | 11810 | inactive |
| cyr | DRSC18021 | 1.32e5 | 1.39e5 | 2.33e5 | 2.35e5 | 9970 | inactive |
| CG30043 | DRSC06285 | 1.08e5 | 99140 | 1.76e5 | 1.47e5 | 9850 | inactive |
| Rab9Db + Rab9Fa | DRSC18445 | 1.13e5 | 1.21e5 | 2.25e5 | 2.07e5 | 8985 | inactive |
| neo | DRSC16316 | 1.56e5 | 1.45e5 | 2.00e5 | 1.85e5 | 12450 | inactive |
| Nepl16 | DRSC14650 | 1.68e5 | 1.37e5 | 2.06e5 | 2.01e5 | 13770 | inactive |
| CG6230 | DRSC01989 | 2.17e5 | 2.13e5 | 2.21e5 | 2.14e5 | 15042 | inactive |
| CG8950 | DRSC07300 | 95870 | 1.35e5 | 2.50e5 | 1.95e5 | 9215 | inactive |
| jagn | DRSC12152 | 1.75e5 | 1.13e5 | 84080 | 71035 | 9650 | inactive |
| Gr59d | DRSC22553 | – | – | – | – | – | active |
| CG30110 | DRSC05686 | 1.00e5 | 1.18e5 | 1.20e5 | 1.10e5 | 8925 | inactive |
| Usp2 | DRSC20590 | 2.02e5 | 1.73e5 | 2.88e5 | 2.80e5 | 15630 | inactive |
| Usp2 | DRSC20632 | 1.18e5 | 1.20e5 | 87455 | 49475 | 9685 | inactive |
| Usp2 | DRSC20633 | 73480 | 80510 | 52415 | 78815 | 10350 | active |
| CG15256 | DRSC01940 | 1.38e5 | 1.49e5 | 1.35e5 | 1.36e5 | 11020 | inactive |
| CG14570 | DRSC11731 | 1.39e5 | 1.07e5 | 1.36e5 | 1.27e5 | 8160 | inactive |
| CG10077 | DRSC09691 | 80525 | 77160 | 61745 | 22095 | 7085 | inactive |
| CG13996 | DRSC02328 | 1.04e5 | 75005 | 1.26e5 | 1.16e5 | 5300 | inactive |
| kri | DRSC10515 | 82955 | 1.10e5 | 94115 | 35895 | 11595 | inactive |
| CG13228 | DRSC06348 | 1.32e5 | 1.50e5 | 1.70e5 | 2.28e5 | 14330 | inactive |
| CG43316 | DRSC06296 | 85125 | 89365 | 99400 | 94650 | 9885 | inactive |
| CG43316 | DRSC06297 | 1.04e5 | 1.03e5 | 1.24e5 | 1.10e5 | 9020 | inactive |
| fzr2 | DRSC04280 | 2.21e5 | 2.18e5 | 1.68e5 | 1.81e5 | 13740 | inactive |
| CG34268 | DRSC07874 | 2.43e5 | 2.04e5 | 1.74e5 | 1.86e5 | 20135 | inactive |
| TwdlM | DRSC15810 | 1.77e5 | 1.84e5 | 2.81e5 | 2.10e5 | 20410 | inactive |
| GIIIspla2 | DRSC18094 | 2.04e5 | 1.56e5 | 2.21e5 | 2.08e5 | 14125 | inactive |
| Eato | DRSC01891 | 4.17e5 | 3.05e5 | 3.32e5 | 3.37e5 | 27115 | inactive |
| Eato | DRSC03061 | 1.56e5 | 1.80e5 | 2.01e5 | 2.24e5 | 14695 | inactive |
| CG42818 + Ca-Ma2d | DRSC01963 | 1.31e5 | 1.53e5 | 1.33e5 | 1.43e5 | 11350 | inactive |
| Or63a | DRSC08681 | 1.16e5 | 1.09e5 | 1.76e5 | 1.70e5 | 7395 | inactive |
| CG9316 | DRSC03195 | 48020 | 45840 | 55245 | 32830 | 2378 | inactive |
| CG7856 | DRSC04896 | 1.63e5 | 1.20e5 | 1.45e5 | 1.40e5 | 9990 | inactive |
| CG8543 | DRSC10990 | 2.13e5 | 2.16e5 | 2.47e5 | 2.13e5 | 8715 | inactive |
| CG8543 | DRSC22809 | – | – | – | – | – | inactive |
| Tdh | DRSC11788 | 1.52e5 | 1.24e5 | 1.15e5 | 1.36e5 | 9528 | inactive |
| CCAP | DRSC15674 | 1.48e5 | 1.48e5 | 1.85e5 | 1.81e5 | 12355 | inactive |
| AhcyL1 | DRSC08647 | 1.28e5 | 1.12e5 | 1.53e5 | 1.31e5 | 5890 | inactive |
